A short description of the data set: Stability testing of steroids combined with povidone iodine (PVP-I, 0.4%), HPLC/UV with LC-MS/MS confirmation. The procedure: PVP-I was prepared in water at the concentration of 100 mg/mL (10%). One milliliter of the solution, suspension, or emulsion was mixed with 40 μL of 10% PVP-I in 1.5 mL amber glass vials, followed by storage under both room temperature and 40° C. for 2 weeks and one month. The resultant samples in the presence of PVP-I were analyzed using HPLC. The four steroid levels were measured against the reference standard samples stored under room temperature in the absence of PVP-I (0.4%).
Weigh 1 g of PVP-I and dissolve in 10 mL of water.
Aliquot 1 mL of ophthalmic solution (USP, 0.1%) into eight amber HPLC vials to give the following samples:
Used the resultant samples as time zero samples for HPLC analysis.
The same as Method 1 except the gradient was changed as follows: […]
The software provided with the HPLC system (LCSolution™ software, version 1.23, installed by SHIMADZU) was used to integrate the peak area.
The measured peak area was converted into concentrations (μg/mL) using the following equation: […]
HPLC Methods: The same as HPLC Method 1, 2, and 3 under Section 2.4.
The Day 0, Two Week, and One Month stability test samples were analyzed with reference standard samples (stored at room temperature in the absence of PVP I) using HPLC Method 1.

The mark [1] stands for this setting: 2 weeks, 40° C., with PVP-I 0.4%.
[2] abbreviates: 2 weeks, room temp, with PVP-I 0.4%.
The mark [3] stands for this setting: Day 0, room temp, with PVP-I 0.4%, mean of replicates.
Where [4] appears, read: Day 0, room temp, with PVP-I 0.4%, single replicates.
The mark [5] stands for this setting: one month, 40° C. control, stored without PVP-I.
Setting [6] is: one month, 40° C., with PVP-I 0.4%, single samples.
Setting [7] is: one month, room temp, with PVP-I 0.4%.

Several values for one entry are separate records, joined by “and”; a condition that tells them apart may be missing. Identical values can stand only once.

The values below come from patent US20150038473A1, “STABLE POVIDONE-IODINE COMPOSITIONS WITH STEROIDS OR NON-STEROIDAL ANTI-INFLAMMATORIES” (FORESIGHT BIOTHERAPEUTICS, INC., priority 2011, published 2015).

On to `C[C@@H]1C[C@H]2[C@@H]3CCC4=CC(=O)C=C[C@]4(C)[C@@]3(F)[C@@H](O)C[C@]2(C)[C@@]1(O)C(=O)COP(=O)([O-])[O-].[Na+].[Na+]` [Dexamethasone Sodium Phosphate], for which the “% of Std” value is, setting by setting: under setting [1], 87.50%; under setting [2], 85.92%; under setting [3], 103.46%; under setting [4], 103.37% and 103.55%; under setting [5], 92.62%; under setting [6], 87.34% and 86.66%. Further, under setting [7], the “% of Std” value was 87.16%. In addition, the “Calc Conc. (calculated concentration in stability samples)” value was 0.8750 mg/mL under setting [1]; 0.8592 mg/mL under setting [2]; 1.0346 mg/mL under setting [3]; 1.0337 mg/mL and 1.0355 mg/mL under setting [4]; 0.9262 mg/mL under setting [5]; 0.8700 mg/mL (one month, 40° C., with PVP-I 0.4%, mean of two runs). The “Calc Conc. (calculated concentration in stability samples)” value is, setting by setting: under setting [6], 0.8734 mg/mL and 0.8666 mg/mL; under setting [7], 0.8716 mg/mL. In addition, under setting [5], the “% of Day 0” value came to 92.62%.
